Columns and labels:
[1] = test system: IL-4, IL-5, IFNγ and IL-2; test: BAL cytokines IL-4, IL-5, IFNγ, IL-2 (Th1/Th2 CBA kit); settings: tocopherols after antigen sensitization, before challenge
mHEVa endothelial cells = test: Tocopherol concentration in mHEVa endothelial cells after in vitro treatment; settings: 18 hours
OVA-specific IgE = OVA-specific IgE by ELISA; format: in vivo, mouse; settings: tocopherols administered after sensitization phase

Row | SMILES | BAL cytokines [1] | Endothelial cell concentration of α-tocopherol (mHEVa endothelial cells; 80 μM α-tocopherol in culture medium) | OVA-specific serum IgE (OVA-specific IgE) | Endothelial cell concentration of γ-tocopherol (mHEVa endothelial cells; 5 μM γ-tocopherol in culture medium, to that in lung tissue of tocopherol-treated mice)
1 | Cc1c(C)c2c(c(C)c1O)CC[C@@](C)(CCC[C@H](C)CCC[C@H](C)CCCC(C)C)O2 [α-tocopherol, d-α-tocopherol, reference compound] | did not alter | five fold | no effect | –
2 | Cc1c(O)cc2c(c1C)O[C@](C)(CCC[C@H](C)CCC[C@H](C)CCCC(C)C)CC2 [γ-tocopherol, d-γ-tocopherol] | did not alter | – | no effect | raised
